# Data as given in publication PMC8327350, “Interaction between the transmembrane domains of neurotrophin receptors p75 and TrkA mediates their reciprocal activation” (The Journal of Biological Chemistry, 2021).
# No constants are given. Whether binding was seen depends on the method and setting. Some results given as binding are weak or reduced against the parent protein; the word gives no strength.
# T1: p75-TM-C257A (C257A point mutant form of p75TM) (human)
# T1 sequence (chain, 15N-labeled in one set of titrations, unlabeled in the other): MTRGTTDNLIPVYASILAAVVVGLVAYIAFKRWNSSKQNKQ
# B1: human TrkA-TM (domain or fragment)
# chain: MKKDETPFGVSVAVGLAVFACLFLSTLLLVLNKAGRRNK
# modifications: 15N-labeled in one set of titrations, unlabeled in the other
# B2: p75-TM-C257A (C257A point mutant form of p75TM) (domain or fragment)
# chain: T1 sequence (chain, 15N-labeled in one set of titrations, unlabeled in the other)
# modifications: 15N-labeled in one set of titrations, unlabeled in the other
# Assays:
# [1] = biological target: T1, p75-TM-C257A (C257A point mutant form of p75TM) (human); assay: NMR titration; unlabeled TrkA-TM added incrementally to 0.4 mM 15N-labeled p75-C257A-TM; DPC micelles, LPR 80, pH 5.9, 318 K, 20 mM sodium phosphate; both purified
# human TrkA-TM (human) = assay: NMR titration; unlabeled p75-TM-C257A added incrementally to 0.5 mM 15N-labeled TrkA-TM; DPC micelles, LPR 80, pH 5.9, 318 K, 20 mM sodium phosphate; both purified
binding [1],binding (human TrkA-TM (human)),Binder
binds weakly,,B1
,binds weakly,B2
